# Assay results as given in publication doi:10.1101/2021.03.01.433469.
# Sequences of proteins named here, by UniProt entry; tags and fusion partners are left off.
# UniProt Q9NFU0: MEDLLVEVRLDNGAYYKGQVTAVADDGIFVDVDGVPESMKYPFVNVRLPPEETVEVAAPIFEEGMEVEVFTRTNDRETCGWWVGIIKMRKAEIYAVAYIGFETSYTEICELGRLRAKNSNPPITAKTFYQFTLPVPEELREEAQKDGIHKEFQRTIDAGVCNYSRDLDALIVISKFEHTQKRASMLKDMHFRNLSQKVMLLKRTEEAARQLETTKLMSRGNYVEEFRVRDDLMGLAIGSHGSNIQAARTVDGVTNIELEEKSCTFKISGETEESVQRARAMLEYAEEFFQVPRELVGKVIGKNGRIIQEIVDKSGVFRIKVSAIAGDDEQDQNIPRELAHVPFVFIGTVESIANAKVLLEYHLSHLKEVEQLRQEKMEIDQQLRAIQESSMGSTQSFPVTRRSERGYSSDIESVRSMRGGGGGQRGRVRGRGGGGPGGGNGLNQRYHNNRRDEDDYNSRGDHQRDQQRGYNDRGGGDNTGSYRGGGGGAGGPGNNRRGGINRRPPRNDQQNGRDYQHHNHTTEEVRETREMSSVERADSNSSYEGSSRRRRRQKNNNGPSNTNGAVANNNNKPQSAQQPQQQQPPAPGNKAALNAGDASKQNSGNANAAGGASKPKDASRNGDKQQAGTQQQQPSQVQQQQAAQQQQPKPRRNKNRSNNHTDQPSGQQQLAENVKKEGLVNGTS
# Read-outs that look alike come from different tables or passages of the source. No constants are given. Whether binding was seen depends on the method and setting. In cells and extracts the contact can be indirect. Binding can be weak; no strength is given.
# Legend:
# [1] = target: Drosophila melanogaster Nab2, FLAG-tagged transgene (UAS-Nab2-FLAG) (Drosophila melanogaster) (UniProt Q9V3H9); test: co-IP
# [2] = target: Drosophila melanogaster Nab2, FLAG-tagged transgene (UAS-Nab2-FLAG) (Drosophila melanogaster) (UniProt Q9V3H9); test: co-IP; remark: listed apart in the source
binding [1],binding [2],Molecule
binds,–,Drosophila Fmr1 (from UniProt Q9NFU0 1-684)
–,binds weakly,"Drosophila Ataxin-2 (Atx2) (protein, UniProt Q8SWR8 1-1084) MNNNSKRKTRPTGGGASGGISRYNSNDNSLRPTNNKAGAGGGNGGAAVRPSAQGVYNNTFFMHSATALVGSVVEVRLRSGNIYEGVFRTFSGNFDIALELPACIKSKNLPEEGKVPKHIIFPADTVVTIVAKDFDSQYATAGAFQTDGAISDKCNGARPDEKELEPWDSGANGDIDIELDSAANGWDPNEMFRKNENTFGVTSTFDDSLASYTVPLDKGDSLEFKEAEAKAEKLAAEIENNPTCRDRLDLENGDEEALFAAVERPSTEQDQRGDRGDRERNDRDREREERDRDRDRDRGNKPRGAGDFQLRETMSSDRYITKQTRSITGPQLSHVGMSSQGSGRDRDTRGDGSMMMQSGGGSGQGGSTQSTAALMLAGGLKGVGPAPSANASADSSSKYSGGSMVKRKTVPQGGKVMRNNVPTGGSNVSVSQGGNGNSVGQNKGGYQPSMGMPSQYSYQGNSQIMHGSSQYRNQSHMGGANKLNGDSNANTNKPLPQRQMRQYQGSQSNSSLNYGGEPQSLGKPVHGSHGGHPGQNSNSPPLQTAGPQQQQQQQQQQQQQQQQQQPPQQQQHQNIQPQGQNTQPARQVRTRDNQMQELRQFGQDFQLAPSNTSPPQQQQQQQQQQQQHQVQQQQQRALQQSASPPQQQQQQQQQQQHVVLHQVPQTHLHQAALSQPHYVPQQQPQQAPLPQQQHVPHHMQQKAQQQQLVETQHQHVQKQHQSQPQVQQPPPQLLQDPSQQPLPIYHTMPPPQTSPVVVTSPVLLEQPPPQPMPVVQQQQTQQLATPKPEVSPAPPSSNTTTPTGIASTPTAGVIASAGSEKTTPAAPTPTSNSATVPTGTAATAGGATGTTPVVKKHVLNPSAKPFTPRGPSTPNPSRPHTPQTPVPMTNIYTTTGGHVPPAANQPIYVMQPQHPFPPQTHPQAGQPPRLRRSNYPPMAASQMHVSASAATGQPLITAGPIPQFIQYGHAPHQQQFQSHTYAPMQMRVYPDQPQQLQFMTQTPQSTTPSPGQPHQQFHPPPQPSPAGGGPQPAFTPPTQAATYQLMCVHPQSLLANHYFPPPTPQHPQQNQQQYQIVMQQHQPQ"
